Results as given in the supplement of paper PMC7666118.
The other results are listed elsewhere or left out.

By UniProt entry, the sequences of proteins in these tests, tags left out. Where a name states a change or a piece, a line headed by the entry shows the natural chain unless it says otherwise.
UniProt O75352: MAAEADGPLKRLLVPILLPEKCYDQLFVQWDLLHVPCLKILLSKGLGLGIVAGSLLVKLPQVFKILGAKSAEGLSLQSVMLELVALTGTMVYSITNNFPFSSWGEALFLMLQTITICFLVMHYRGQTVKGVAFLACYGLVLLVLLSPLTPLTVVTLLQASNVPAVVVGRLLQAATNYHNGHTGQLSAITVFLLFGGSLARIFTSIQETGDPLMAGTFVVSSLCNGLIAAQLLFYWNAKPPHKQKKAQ
UniProt Q9NXL9: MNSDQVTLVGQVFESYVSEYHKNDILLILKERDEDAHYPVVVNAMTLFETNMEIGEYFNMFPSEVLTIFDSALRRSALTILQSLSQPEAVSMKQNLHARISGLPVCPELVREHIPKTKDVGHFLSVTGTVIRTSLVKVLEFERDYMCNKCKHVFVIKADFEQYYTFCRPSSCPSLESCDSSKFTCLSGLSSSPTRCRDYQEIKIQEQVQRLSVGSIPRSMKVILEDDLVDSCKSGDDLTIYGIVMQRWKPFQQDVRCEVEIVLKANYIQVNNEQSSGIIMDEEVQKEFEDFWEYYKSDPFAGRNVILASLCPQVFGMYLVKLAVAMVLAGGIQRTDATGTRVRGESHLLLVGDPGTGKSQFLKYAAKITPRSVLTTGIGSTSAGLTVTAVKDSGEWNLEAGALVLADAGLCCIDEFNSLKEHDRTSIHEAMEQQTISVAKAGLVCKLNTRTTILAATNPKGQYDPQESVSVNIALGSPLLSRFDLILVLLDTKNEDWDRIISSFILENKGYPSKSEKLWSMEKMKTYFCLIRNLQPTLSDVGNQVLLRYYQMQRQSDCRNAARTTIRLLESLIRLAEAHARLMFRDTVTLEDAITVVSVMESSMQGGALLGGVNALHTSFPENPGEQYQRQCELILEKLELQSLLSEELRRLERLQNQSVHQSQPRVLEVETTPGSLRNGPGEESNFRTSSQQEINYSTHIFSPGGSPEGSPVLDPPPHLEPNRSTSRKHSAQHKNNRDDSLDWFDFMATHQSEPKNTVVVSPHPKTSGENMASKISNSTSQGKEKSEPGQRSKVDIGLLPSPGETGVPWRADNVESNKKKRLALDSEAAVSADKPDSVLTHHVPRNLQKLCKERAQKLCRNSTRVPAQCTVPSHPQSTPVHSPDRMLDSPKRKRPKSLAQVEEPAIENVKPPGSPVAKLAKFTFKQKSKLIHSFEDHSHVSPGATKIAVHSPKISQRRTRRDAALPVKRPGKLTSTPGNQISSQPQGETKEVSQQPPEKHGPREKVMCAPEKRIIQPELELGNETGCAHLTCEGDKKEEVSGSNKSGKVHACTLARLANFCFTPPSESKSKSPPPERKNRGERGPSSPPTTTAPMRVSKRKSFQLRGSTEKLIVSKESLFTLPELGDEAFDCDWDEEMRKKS
UniProt Q8NHP6: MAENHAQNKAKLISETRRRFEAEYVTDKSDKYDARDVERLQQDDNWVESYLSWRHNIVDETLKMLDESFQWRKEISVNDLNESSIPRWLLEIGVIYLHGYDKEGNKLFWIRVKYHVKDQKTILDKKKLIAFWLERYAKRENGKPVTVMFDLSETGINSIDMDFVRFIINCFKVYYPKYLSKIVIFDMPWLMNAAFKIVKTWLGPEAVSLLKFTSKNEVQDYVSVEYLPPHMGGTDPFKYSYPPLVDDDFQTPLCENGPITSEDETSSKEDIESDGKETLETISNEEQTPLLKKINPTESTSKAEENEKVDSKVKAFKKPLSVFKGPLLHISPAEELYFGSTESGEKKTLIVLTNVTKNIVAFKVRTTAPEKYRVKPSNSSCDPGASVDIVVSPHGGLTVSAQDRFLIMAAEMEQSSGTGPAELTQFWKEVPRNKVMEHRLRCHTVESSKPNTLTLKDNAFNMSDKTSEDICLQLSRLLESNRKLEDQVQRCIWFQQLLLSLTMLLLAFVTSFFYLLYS
UniProt Q16539, whole entry: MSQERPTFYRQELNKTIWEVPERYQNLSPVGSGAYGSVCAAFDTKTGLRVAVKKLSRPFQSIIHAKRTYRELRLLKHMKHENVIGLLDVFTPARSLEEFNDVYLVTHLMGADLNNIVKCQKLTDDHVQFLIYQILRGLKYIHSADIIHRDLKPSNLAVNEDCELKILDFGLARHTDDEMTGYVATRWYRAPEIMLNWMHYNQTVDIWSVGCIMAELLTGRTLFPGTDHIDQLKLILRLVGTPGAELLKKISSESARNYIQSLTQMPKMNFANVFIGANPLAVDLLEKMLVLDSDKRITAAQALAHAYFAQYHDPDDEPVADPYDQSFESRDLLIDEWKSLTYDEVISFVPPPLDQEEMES
UniProt Q8IVH4: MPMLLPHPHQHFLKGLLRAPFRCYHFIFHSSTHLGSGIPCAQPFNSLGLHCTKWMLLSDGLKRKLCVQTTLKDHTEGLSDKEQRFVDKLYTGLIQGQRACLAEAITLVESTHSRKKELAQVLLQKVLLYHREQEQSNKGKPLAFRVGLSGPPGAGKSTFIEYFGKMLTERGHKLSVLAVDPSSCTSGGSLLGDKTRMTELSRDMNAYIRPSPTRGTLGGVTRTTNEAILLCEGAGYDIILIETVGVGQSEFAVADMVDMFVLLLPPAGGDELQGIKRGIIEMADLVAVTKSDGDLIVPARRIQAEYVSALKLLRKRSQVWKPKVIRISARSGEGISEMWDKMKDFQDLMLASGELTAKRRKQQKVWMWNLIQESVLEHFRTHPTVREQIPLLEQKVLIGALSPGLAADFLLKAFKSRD
UniProt O95297: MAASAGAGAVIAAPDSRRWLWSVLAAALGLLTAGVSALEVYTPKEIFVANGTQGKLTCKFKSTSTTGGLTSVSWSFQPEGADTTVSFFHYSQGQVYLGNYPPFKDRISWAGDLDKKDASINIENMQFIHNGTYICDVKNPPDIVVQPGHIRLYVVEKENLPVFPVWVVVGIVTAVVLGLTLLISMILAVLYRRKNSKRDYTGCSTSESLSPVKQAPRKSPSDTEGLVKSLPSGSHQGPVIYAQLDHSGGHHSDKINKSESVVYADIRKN
UniProt P56270: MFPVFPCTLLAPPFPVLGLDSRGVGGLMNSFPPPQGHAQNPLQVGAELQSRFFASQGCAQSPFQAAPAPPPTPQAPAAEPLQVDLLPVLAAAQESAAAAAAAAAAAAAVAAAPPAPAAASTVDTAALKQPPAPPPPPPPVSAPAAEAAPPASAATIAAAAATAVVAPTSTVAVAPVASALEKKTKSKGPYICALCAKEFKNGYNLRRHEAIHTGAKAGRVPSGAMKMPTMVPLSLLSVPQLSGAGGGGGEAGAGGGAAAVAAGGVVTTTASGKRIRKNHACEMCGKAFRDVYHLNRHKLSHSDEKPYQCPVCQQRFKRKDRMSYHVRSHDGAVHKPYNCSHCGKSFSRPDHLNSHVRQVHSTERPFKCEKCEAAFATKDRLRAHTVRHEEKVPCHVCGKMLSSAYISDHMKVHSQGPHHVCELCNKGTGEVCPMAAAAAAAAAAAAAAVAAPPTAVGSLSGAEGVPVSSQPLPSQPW
UniProt Q9UBB5, whole entry: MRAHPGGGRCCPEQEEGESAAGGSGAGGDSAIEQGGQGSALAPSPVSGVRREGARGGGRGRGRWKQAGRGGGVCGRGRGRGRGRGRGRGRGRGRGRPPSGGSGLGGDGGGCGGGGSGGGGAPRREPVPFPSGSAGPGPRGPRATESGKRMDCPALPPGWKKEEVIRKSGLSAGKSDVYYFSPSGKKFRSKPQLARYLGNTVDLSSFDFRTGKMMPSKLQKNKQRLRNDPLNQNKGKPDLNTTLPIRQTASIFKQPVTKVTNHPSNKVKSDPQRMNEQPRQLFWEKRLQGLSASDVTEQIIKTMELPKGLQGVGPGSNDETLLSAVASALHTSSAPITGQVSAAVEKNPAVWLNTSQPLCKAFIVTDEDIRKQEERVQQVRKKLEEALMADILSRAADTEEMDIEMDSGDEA
UniProt P02686, whole entry: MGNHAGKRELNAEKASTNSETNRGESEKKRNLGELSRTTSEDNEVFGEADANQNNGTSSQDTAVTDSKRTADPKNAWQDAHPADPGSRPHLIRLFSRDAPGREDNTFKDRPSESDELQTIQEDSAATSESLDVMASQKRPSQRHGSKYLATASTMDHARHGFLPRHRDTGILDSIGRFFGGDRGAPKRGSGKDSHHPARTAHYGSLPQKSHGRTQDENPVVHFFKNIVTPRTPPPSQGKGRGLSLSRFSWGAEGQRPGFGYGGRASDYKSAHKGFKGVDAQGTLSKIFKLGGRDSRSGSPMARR
UniProt Q9UBP6: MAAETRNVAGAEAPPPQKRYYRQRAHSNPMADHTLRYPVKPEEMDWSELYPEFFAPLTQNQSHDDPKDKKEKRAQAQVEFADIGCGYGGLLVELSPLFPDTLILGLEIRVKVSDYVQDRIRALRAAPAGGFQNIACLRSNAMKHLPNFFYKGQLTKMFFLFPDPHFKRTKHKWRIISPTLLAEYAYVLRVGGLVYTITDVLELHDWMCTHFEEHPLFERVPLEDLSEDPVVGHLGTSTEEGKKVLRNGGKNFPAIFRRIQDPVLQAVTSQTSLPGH
UniProt Q8WV92, whole entry: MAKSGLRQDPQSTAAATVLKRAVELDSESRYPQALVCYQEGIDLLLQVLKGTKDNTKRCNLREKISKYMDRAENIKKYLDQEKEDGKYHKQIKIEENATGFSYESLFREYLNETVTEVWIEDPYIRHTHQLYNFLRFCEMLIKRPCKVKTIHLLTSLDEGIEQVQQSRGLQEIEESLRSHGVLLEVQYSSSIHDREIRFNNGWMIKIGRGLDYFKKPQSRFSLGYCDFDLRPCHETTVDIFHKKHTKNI
UniProt Q9BWT6: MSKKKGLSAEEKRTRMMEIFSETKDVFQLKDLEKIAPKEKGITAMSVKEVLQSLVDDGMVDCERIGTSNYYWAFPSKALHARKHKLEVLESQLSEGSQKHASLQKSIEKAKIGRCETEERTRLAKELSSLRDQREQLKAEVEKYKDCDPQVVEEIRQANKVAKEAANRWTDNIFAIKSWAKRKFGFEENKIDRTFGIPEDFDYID
UniProt Q99583: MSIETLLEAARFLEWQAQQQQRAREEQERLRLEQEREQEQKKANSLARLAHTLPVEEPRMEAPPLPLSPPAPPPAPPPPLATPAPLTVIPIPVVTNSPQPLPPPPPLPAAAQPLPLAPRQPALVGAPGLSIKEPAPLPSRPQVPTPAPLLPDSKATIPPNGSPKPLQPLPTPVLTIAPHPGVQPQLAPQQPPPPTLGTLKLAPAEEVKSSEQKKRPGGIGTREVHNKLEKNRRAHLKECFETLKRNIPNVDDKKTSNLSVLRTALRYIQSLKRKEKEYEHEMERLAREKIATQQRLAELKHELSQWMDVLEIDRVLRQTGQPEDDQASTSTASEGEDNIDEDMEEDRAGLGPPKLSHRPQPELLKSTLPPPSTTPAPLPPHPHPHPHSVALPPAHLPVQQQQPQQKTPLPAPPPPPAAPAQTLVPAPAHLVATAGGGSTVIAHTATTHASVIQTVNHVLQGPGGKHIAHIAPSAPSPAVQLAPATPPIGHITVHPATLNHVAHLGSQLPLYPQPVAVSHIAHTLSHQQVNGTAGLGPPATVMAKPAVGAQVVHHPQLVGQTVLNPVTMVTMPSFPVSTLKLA
UniProt Q9HCE1: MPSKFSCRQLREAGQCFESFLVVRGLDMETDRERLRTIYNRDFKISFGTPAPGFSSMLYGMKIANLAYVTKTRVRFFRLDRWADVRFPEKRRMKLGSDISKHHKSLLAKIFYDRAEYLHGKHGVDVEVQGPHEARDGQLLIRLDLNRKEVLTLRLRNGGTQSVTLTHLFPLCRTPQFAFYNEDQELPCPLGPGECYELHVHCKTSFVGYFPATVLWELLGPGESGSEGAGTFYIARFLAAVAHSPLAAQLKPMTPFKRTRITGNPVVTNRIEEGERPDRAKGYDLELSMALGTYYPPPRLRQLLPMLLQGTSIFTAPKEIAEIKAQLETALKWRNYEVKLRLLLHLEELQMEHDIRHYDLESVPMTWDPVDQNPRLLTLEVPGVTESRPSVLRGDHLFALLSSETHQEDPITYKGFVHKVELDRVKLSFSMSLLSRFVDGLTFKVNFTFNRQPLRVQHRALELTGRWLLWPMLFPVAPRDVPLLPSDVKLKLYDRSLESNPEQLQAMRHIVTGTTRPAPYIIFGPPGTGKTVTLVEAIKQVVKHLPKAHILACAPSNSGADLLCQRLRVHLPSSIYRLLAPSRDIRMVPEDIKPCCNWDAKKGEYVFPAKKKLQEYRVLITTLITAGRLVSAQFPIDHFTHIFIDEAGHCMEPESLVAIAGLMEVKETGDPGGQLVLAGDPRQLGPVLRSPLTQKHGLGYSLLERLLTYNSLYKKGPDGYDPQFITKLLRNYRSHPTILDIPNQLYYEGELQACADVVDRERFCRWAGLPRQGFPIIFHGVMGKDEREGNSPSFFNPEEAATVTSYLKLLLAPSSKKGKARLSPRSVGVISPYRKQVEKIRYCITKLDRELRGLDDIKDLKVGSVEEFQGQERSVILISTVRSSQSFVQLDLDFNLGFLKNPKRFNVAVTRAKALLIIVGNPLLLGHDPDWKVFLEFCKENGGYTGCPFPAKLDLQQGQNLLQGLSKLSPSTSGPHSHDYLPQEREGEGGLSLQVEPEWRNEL

These targets were tested with COc1ccc(Cn2ccc3ccc(C(=O)NO)cc32)cc1 (assay: dose-dependent thermal stabilisation call (2D-TPP, DLPTP, 10% FDR) (binary (1 = stabilised)); higher = stabilised by the compound). Details: system: HL-60 intact cells; concentration range 0.04-10 µM.

Row | Target | dose-dependent thermal stabilisation call
1 | MAPKAPK5 (UniProt Q8IW41) | inactive: 0
2 | MLYCD (UniProt O95822) | inactive: 0
3 | MLH1 (UniProt P40692) | inactive: 0
4 | MPDU1 (UniProt O75352) | inactive: 0
5 | MCM9 (UniProt Q9NXL9) | inactive: 0
6 | MOSPD2 (UniProt Q8NHP6) | inactive: 0
7 | MRPL43 (UniProt Q8N983) | inactive: 0
8 | MPHOSPH6 (UniProt Q99547) | inactive: 0
9 | MAPK14 (UniProt Q16539) | active: 1
10 | MMAA (UniProt Q8IVH4) | inactive: 0
11 | MRPL40 (UniProt Q9NQ50) | inactive: 0
12 | MBD3 (UniProt O95983) | inactive: 0
13 | MRPL16 (UniProt Q9NX20) | inactive: 0
14 | MPZL1 (UniProt O95297) | inactive: 0
15 | MAZ (UniProt P56270) | inactive: 0
16 | MBD2 (UniProt Q9UBB5) | inactive: 0
17 | MAN2B2 (UniProt Q9Y2E5) | inactive: 0
18 | MBP (UniProt P02686) | inactive: 0
19 | MAP7 (UniProt Q14244) | inactive: 0

Reprinted, entries 13–15
Row | Target | dose-dependent thermal stabilisation call
13 | MRPL16 (UniProt Q9NX20) | inactive: 0
14 | MPZL1 (UniProt O95297) | inactive: 0
15 | MAZ (UniProt P56270) | inactive: 0

Next results.

Row | Target | dose-dependent thermal stabilisation call
20 | MED15 (UniProt Q96RN5) | inactive: 0
21 | MRPS10 (UniProt P82664) | inactive: 0
22 | MRPL10 (UniProt Q7Z7H8) | inactive: 0
23 | METTL1 (UniProt Q9UBP6) | inactive: 0
24 | MKNK1 (UniProt Q9BUB5) | inactive: 0
25 | MAPRE2 (UniProt Q15555) | inactive: 0
26 | MGST3 (UniProt O14880) | inactive: 0
27 | MITD1 (UniProt Q8WV92) | inactive: 0
28 | MND1 (UniProt Q9BWT6) | inactive: 0
29 | MRPS30 (UniProt Q9NP92) | inactive: 0
30 | MRPL11 (UniProt Q9Y3B7) | inactive: 0
31 | MRPS33 (UniProt Q9Y291) | inactive: 0
32 | MED28 (UniProt Q9H204) | inactive: 0
33 | MGAT2 (UniProt Q10469) | inactive: 0
34 | MNT (UniProt Q99583) | inactive: 0
35 | MECR (UniProt Q9BV79) | inactive: 0
36 | MOV10 (UniProt Q9HCE1) | inactive: 0
37 | ME1 (UniProt P48163) | inactive: 0
38 | MRCL3 | inactive: 0
